These are yes or no findings as the source states them, for the method shown. In cells and extracts the contact can be indirect. For part of these data: A result given as binding can be weak or reduced; the word gives no strength.

By UniProt entry, the sequences of proteins in these tests, tags left out. Where a name states a change or a piece, a line headed by the entry shows the natural chain unless it says otherwise.
UniProt P49758: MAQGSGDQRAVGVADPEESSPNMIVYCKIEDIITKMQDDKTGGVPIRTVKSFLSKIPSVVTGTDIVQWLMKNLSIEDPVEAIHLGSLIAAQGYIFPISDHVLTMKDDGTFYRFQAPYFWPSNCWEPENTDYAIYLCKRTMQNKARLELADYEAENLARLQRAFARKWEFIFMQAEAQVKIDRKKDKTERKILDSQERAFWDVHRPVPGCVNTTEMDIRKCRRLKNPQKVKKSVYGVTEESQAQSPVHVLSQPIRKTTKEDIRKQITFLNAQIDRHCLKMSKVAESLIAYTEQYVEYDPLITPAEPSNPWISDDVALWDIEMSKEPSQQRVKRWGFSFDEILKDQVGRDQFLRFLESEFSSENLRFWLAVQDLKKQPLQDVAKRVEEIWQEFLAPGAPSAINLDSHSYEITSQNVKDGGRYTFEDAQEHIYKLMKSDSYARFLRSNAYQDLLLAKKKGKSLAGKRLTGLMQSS
UniProt Q13485: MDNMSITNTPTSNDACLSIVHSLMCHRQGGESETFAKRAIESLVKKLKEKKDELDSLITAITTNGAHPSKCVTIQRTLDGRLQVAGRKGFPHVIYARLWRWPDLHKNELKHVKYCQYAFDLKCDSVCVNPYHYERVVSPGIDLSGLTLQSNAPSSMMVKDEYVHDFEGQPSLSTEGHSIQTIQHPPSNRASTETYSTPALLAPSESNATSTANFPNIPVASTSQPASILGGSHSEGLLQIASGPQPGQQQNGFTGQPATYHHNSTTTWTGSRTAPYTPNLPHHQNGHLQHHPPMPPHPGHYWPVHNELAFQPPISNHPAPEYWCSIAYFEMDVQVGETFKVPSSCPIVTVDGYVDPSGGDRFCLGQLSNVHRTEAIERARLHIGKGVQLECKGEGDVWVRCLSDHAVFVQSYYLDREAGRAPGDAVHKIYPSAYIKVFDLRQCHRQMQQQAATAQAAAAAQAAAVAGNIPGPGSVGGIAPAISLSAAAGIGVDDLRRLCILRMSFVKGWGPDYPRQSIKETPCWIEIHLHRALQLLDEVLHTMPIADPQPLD

Test in all cases: co-IP; 293T cells co-transfected with Flag-tagged SMAD4 and various HA-tagged RGS6 mutants; IP of lysates with anti-HA antibody
For test [1], the target named is HA-tagged RGS6 mutant lacking the RGS domain (human) (UniProt P49758).
Test [2] has as its target HA-tagged RGS6(ΔGGL), mutant RGS6 that lacks the GGL domain (human) (UniProt P49758).
Test [3] concerns the target HA-tagged RGS6 mutant missing the DEP domain (human) (UniProt P49758).

Consider “Flag-tagged SMAD4 (from UniProt Q13485 1-552)”, for which the values for the binding result in test [1], in test [2] and in test [3] were “binds”, “no binding” and “binds”, respectively.

These data come from paper PMC9334288.
